These are yes or no findings as the source states them, for the method shown. Binding calls can cover weak binding; strength is not graded here.
Biological target: AA amyloid deposits in mice (TRIAD murine model of systemic AA amyloidosis) (mouse)
Assay: in vivo imaging with 125I-p5

binding: binds
B1: peptide p5 (also called p31-GGGY) (peptide)
peptide: GGGYSKAQKAQAKQAKQAQKAQKAQAKQAKQ
modifications: 125I on tyrosine
